This passage reports binding results from publication doi:10.1101/2025.01.13.632769.

Sequences of proteins named here, by UniProt entry; tags and fusion partners are left off. A change or cut given only in a name is not applied to a line headed by its entry.
UniProt Q9VWE4: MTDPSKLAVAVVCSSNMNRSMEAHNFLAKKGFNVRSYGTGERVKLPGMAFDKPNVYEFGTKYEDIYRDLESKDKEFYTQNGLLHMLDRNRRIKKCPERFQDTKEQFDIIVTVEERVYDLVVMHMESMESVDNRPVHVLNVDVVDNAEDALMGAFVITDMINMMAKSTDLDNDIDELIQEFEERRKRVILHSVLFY

This experiment has as its target T1, Symplekin (residues 19-351) (Drosophila) (UniProt Q8MSU4).
T1 sequence: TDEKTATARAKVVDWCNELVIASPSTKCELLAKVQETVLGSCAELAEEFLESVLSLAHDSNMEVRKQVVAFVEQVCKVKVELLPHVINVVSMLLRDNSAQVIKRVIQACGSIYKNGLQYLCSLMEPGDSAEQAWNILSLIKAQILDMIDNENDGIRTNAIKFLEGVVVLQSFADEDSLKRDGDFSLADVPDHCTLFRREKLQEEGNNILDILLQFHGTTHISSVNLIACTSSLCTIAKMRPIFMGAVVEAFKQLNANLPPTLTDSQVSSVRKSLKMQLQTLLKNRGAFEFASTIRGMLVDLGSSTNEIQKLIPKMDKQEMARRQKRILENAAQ
Description: SEC. A general note: In gel filtration, larger molecules generally elute earlier.

No constants are given. Whether binding was seen depends on the method and setting. Binding calls can cover weak binding; strength is not graded here.

“Drosophila Ssu72 (1-195) (from UniProt Q9VWE4) (enzyme)”: the binding result is listed as “binds”.

With “mutant Drosophila Ssu72 (C13D/D144N) (from UniProt Q9VWE4) (enzyme)”, the binding entry is given as “binds”.
